Test results taken from publication PMC5106528, “High-Throughput Toxicity and Phenotypic Screening of 3D Human Neural Progenitor Cell Cultures on a Microarray Chip Platform” (Stem Cell Reports, 2016).

Experiments:
[1] = tested on: undifferentiated ReNcell VM NPCs; details: human, 72 h
Procedure: (§1) On-chip cultures of undifferentiated and 10-day differentiated NPCs were stamped with WellChips filled with compound-containing solutions and incubated for 72 hr prior to viability assessment. Vehicle-control normalized viabilities were plotted against compound concentration to generate dose-response plots (Figures 5A and S4). […] The sigmoidal fits for undifferentiated and differentiating NPCs were compared to assess whether differential sensitivities (i.e., different IC50 values) existed for the screened compounds.
(§2) Cell viability was determined in 3D on-chip cultures using a mammalian cell viability assay (LIVE/DEAD, Invitrogen). Prior to the assay, dead cell controls were prepared with 30 min incubation in a WellChip containing either […] 0.5% (w/v) saponin-DMEM/F12 medium in its microwells. […] After staining, PillarChips were rinsed twice with warm DPBS and incubated in DPBS containing 50 mM trehalose (Sigma) for 10 min before rapid drying with nitrogen and storage in the dark. Dried PillarChips were imaged with a Thermo Scientific Cellomics ArrayScan VTI high-content system.
(§3) Undifferentiated and differentiated microchip cultures were prepared as described above. Chemicals were purchased from Sigma or the NIH Small Molecule Repository (Table S2). Concentrated stocks were prepared and diluted into ReNcell Maintenance Medium to prepare the highest screened concentration solution for each compound. Four-fold serial dilutions were made in ReNcell Maintenance Medium, with all solutions having a final concentration of 0.5% or 1% DMSO (v/v) and 20 μg/mL Matrigel. For undifferentiated cultures, the solutions also contained 20 ng/mL of EGF and FGF2. These solutions were printed into WellChips, covered with a gas-permeable membrane, and warmed at 37°C for at least 5 min before stamping with cells. Each WellChip contained six compounds each at six concentrations (n = 10 biological replicates for each concentration) and the appropriate medium containing 0.5% or 1% DMSO for vehicle and dead controls (n = 32 biological replicates per control). PillarChip cultures were incubated with compounds for 72 hr with daily medium exchange to freshly prepared WellChips containing compounds at the appropriate concentrations. […] On-chip toxicity screens were repeated three times for undifferentiated and differentiated cultures. […]

[2] = tested on: differentiating ReNcell VM NPCs; details: human, 72 h
Procedure: as §1, §2, §3

`CN(C)CCOC(c1ccccc1)c1ccccc1` [Diphenhydramine] was tested, and the “Normalized viability at Cmax, Undifferentiated, Mean ± SEM” value [1] was -0.07 ± 0.02 and the “Normalized viability at Cmax, Differentiating, Mean ± SEM” value [2] was -0.02 ± 0.08.

In the case of `CCCNCC(O)COc1ccccc1C(=O)CCc1ccccc1` (stereo not shown) [Rythmol], the “Normalized viability at Cmax, Undifferentiated, Mean ± SEM” value [1] is reported as 0.08 ± 0.12 and the “Normalized viability at Cmax, Differentiating, Mean ± SEM” value [2] is reported as 1.09 ± 0.20.
